Hit rate of the full screen: of about 400,000 compounds, about 5,500 (1.4%) were called active. Inconclusive means that the source gave no clear call. Such entries were picked first, then a sample of the others. Calls follow the shape of the dose curve; as a rule, active = well fitted cell-killing curve with a large enough effect; inconclusive = small, poorly fitted or top-dose-only effect, or effect the other way; inactive = flat fitted curve, though single readings scatter. A potency beside an inconclusive call is a rough fit, not a confirmed value.
Test: qHTS assay for MDR1-selective chemotherapeutics: Primary screen using the parental adenocarcinoma cell KB-3-1; also: nearly all actives have a fitted effect of over 60% in size
Conditions: KB-3-1 viability, CellTiter-Glo ATP luminescence, 72 h; activity change, negative = cytotoxic: at 46.1 µM (top of the series)
Method in brief: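 Cytotoxicity measured as CellTiter-Glo luminescence after 72 h at 37 C. Compound titrations were pinned onto drug-naive KB-3-1 parental adenocarcinoma cells grown in DMEM with 10% FBS, and normalized data fitted to concentration-response curves.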
For `CN1c2ccc([N+](=O)[O-])cc2CC2(C(=O)NC(=O)NC2=O)C1c1ccccc1` (stereo unspecified), the Potency was inconclusive: 29.1 µM [cytotoxic, single point].
For `COC(=O)C1=C(c2ccc3ccccc3c2)C[C@@H]2CC[C@H]1N2C(=O)N1CCCC1`, the Potency was inconclusive: 18.4 µM [cytotoxic, single point].
With `CC12CC[C@H]3[C@@H](CCC4(O)C[C@H](O)CCC34/C=N/NC(=O)c3ccccc3O)C1(O)CCC2C1=CC(=O)OC1` (stereo partly specified) the Potency was inconclusive: 16.4 µM [cytotoxic, partial curve, poor fit].
With `N#Cc1c(Cl)c(Cl)c(Cl)c(C#N)c1Cl` the Potency was inconclusive: 0.58 µM [cytotoxic, full curve, poor fit].
In the case of `COC(=O)C1=C(c2cccc(OCc3ccccc3)c2)C[C@@H]2CC[C@H]1N2C(=O)NCc1ccccc1`, the Potency is reported as inconclusive: 29.1 µM [cytotoxic, single point].
In the case of `[O]=[Sb]([OH])([OH])[c]1ccccc1`, the Potency is reported as inconclusive: 14.6 µM [rising, partial curve, poor fit].
For `C[C@@H]1O[C@@H](O[C@@H]2C=C3CCC4C(CC[C@]5(C)[C@@H](c6ccc(=O)oc6)CC[C@]45O)[C@@]3(C)CC2)[C@H](O)[C@H](O)[C@H]1O` (stereo partly specified), the Potency was active: 0.0103 µM.
For `COC1C(O)C(C)OC(OC2CCC3(C=O)C(CCC4C3CCC3(C)C(C5=CC(=O)OC5)CCC43O)C2)C1O` (stereo unspecified), the Potency was active: 0.0058 µM.
With `O=C(COc1ccc(Cl)cc1)N(c1ccccc1Cl)C1CN2CCC1CC2` (stereo unspecified) the Potency was inconclusive: 29.1 µM [cytotoxic, single point].
For `CN(C)C(=O)Oc1ccc(OCc2nc3ccccc3[nH]2)cc1`, the Potency was inconclusive: 18.4 µM [cytotoxic, partial curve, poor fit].
For `CCN(CC)C(=O)c1ccc(NC(=O)c2ccc3c(c2)NC(=O)CS3)cc1`, the Potency was inconclusive: 16.4 µM [rising, single point].
In the case of `CN(C)c1ccc(-[n+]2c(-c3ccccc3)cc(-c3ccccc3)cc2-c2ccccc2)cc1`, the Potency is reported as active: 0.651 µM.
For `c1ccc2c(c1)OCC(C1=NCCN1)O2` (stereo unspecified), the Potency was inconclusive: 29.1 µM [cytotoxic, single point].
For `CCCCCn1c(=O)c(C(=O)NCCc2ccccc2)c(O)c2ccccc21`, the Potency was inconclusive: 29.1 µM [cytotoxic, single point].
In the case of `C[C@]12CC[C@H](O)CC1=CC[C@@H]1[C@@H]2CC[C@]2(C)C(=O)CC[C@@H]12`, the “activity change, negative = cytotoxic” value is reported as inactive: -0.619%.
For `COC(=O)C1=C(c2cccc(C#N)c2)C[C@@H]2CC[C@H]1N2C(=O)NCCc1ccccc1`, the “activity change, negative = cytotoxic” value was inactive: 1.77%.
With `CC(=O)OC[C@]12CCC(C)=C[C@H]1O[C@@H]1[C@H](O)[C@@H](OC(C)=O)[C@@]2(C)[C@]12CO2` the Potency was inconclusive: 0.0092 µM [cytotoxic, full curve, poor fit].
In the case of `O=C1NC(=O)C2(Cc3ccccc3N3CCOCC32)C(=O)N1c1ccccc1` (stereo unspecified), the Potency is reported as inconclusive: 18.4 µM [cytotoxic, single point].
For `CC(=O)O[C@@]12CO[C@@H]1C[C@H](OC1OCC(O)C(O)C1O)[C@@]1(C)C(=O)[C@H](O)C3=C(C)[C@@H](OC(=O)[C@H](O)[C@@H](NC(=O)c4ccccc4)c4ccccc4)C[C@@](O)([C@@H](OC(=O)c4ccccc4)C12)C3(C)C` (stereo partly specified), the Potency was active: 1.03 µM.
For `COc1ccc(C(=O)C2CCCN(Cc3cnc(C)s3)C2)c(OC)c1` (stereo unspecified), the Potency was inconclusive: 7.31 µM [cytotoxic, partial curve, poor fit].
In the case of `COC(=O)C1=C(c2cc3ccccc3s2)C[C@@H]2CC[C@H]1N2C(=O)NCCNC(C)=O`, the “activity change, negative = cytotoxic” value is reported as inactive: 0%.
In the case of `N#Cc1cn(C2OC(CO)C(O)C2O)c2ncnc(N)c12` (stereo unspecified), the Potency is reported as active: 0.0073 µM.
With `COC(=O)C1=C(c2ccccc2)C[C@@H]2CC[C@H]1N2C(=O)NCc1ccc(C(F)(F)F)cc1` the “activity change, negative = cytotoxic” value was inactive: -9.5%.
In the case of `Cc1ccccc1-n1nc(C)c2c1NC(=O)CSC2c1ccccc1C(F)(F)F` (stereo unspecified), the Potency is reported as inconclusive: 20.6 µM [cytotoxic, single point].
In the case of `CCOC(=O)[C@]12Cc3c(cc(OC)c(OC)c3OC)[C@H]1N(C1CCCCC1)C(=O)c1ccccc12`, the Potency is reported as active: 3.26 µM.
In the case of `COC(=O)C1=C(c2ccc(Cl)c(C(F)(F)F)c2)C[C@@H]2CC[C@H]1N2C(=O)NCc1ccco1`, the “activity change, negative = cytotoxic” value is reported as inactive: 0%.
With `COc1cc(C(=O)NN=Cc2ccc(N(CCCl)CCCl)cc2)cc(OC)c1OC` the Potency was active: 16.4 µM.
With `COc1ccccc1OP(=O)(Nc1ccc(Br)cc1)Oc1ccccc1OC` the Potency was inconclusive: 18.4 µM [cytotoxic, single point].
In the case of `COc1ccccc1N1C(=O)NC(=O)/C(=C/c2ccc([N+](=O)[O-])s2)C1=O`, the “activity change, negative = cytotoxic” value is reported as inactive: 6.8%.
For `COc1ccc(Cn2c(O)c(C=NCCCn3ccnc3)c(=O)[nH]c2=O)cc1`, the Potency was inconclusive: 2.59 µM [cytotoxic, full curve].
In the case of `COc1cccc(C(=O)C2CN(C)CC2c2ccc(Cl)cc2)c1` (stereo unspecified), the Potency is reported as inconclusive: 29.1 µM [cytotoxic, single point].
With `O=c1c2ccccc2nc(/C=C/c2ccc([N+](=O)[O-])o2)n1-c1ccc(O)cc1` the Potency was inconclusive: 20.6 µM [cytotoxic, partial curve, poor fit].
For `COc1cc(O)c2c(c1)/C=C/C[C@H](O)[C@H](O)C(=O)CCC[C@H](C)OC2=O`, the Potency was inconclusive: 29.1 µM [cytotoxic, single point].
With `COc1cc2c(cc1/C=C/[N+](=O)[O-])OCO2` the Potency was inconclusive: 29.1 µM [cytotoxic, single point].
For `COc1ccc(C(=O)O/N=C(/C(N)=O)P(=O)(OC(C)C)OC(C)C)cc1`, the “activity change, negative = cytotoxic” value was inactive: 0.985%.
In the case of `O=C(CN1CCOCC1)c1cccc([N+](=O)[O-])c1`, the activity change, negative = cytotoxic is reported as inconclusive: -6.97%.
For `C[C@@H]1O[C@@H](O[C@H]2C[C@@H](O)[C@]3(CO)[C@@H]4C(CC[C@]3(O)C2)[C@@]2(O)CC[C@H](C3COC(=O)C3)[C@@]2(C)C[C@H]4O)[C@H](O)[C@H](O)[C@H]1O` (stereo partly specified), the Potency was active: 1.16 µM.
For `NCCc1ccc(OCc2ccccc2)c(OCc2ccccc2)c1`, the Potency was inconclusive: 16.4 µM [cytotoxic, single point].
For `COC(=O)C1=C(N)OC(C)=C(C(C)=O)C12C(=O)N(C)c1ccccc12` (stereo unspecified), the “activity change, negative = cytotoxic” value was inactive: 1.68%.
With `COc1ccc2c(c1OC)CN1CCc3cc4c(cc3C1C2)OCO4` (stereo unspecified) the Potency was inconclusive: 29.1 µM [cytotoxic, single point].
In the case of `COC(=O)c1cn(C(=O)c2cccc3ccccc23)c2ccccc12`, the Potency is reported as inconclusive: 29.1 µM [cytotoxic, single point].
For `O=C(Nc1ccccc1)N1CCC2(CC1)OCCO2`, the “activity change, negative = cytotoxic” value was inactive: 1.24%.
For `CC(=NCc1ccc2c(c1)OCO2)c1c(O)n(-c2ccccc2)c(=O)[nH]c1=O`, the Potency was inconclusive: 20.6 µM [cytotoxic, single point].
In the case of `Cc1ccc(/C=C2\C(=O)NC(=S)N(c3ccccc3F)C2=O)s1`, the Potency is reported as inconclusive: 29.1 µM [rising, single point].
For `COC(=O)C(O)(c1ccc(NC(=S)NC(=O)c2ccc(Cl)cc2Cl)cc1)C(F)(F)F` (stereo unspecified), the Potency was inconclusive: 29.1 µM [cytotoxic, single point].
In the case of `O=c1oc2ccccc2c(O)c1[C@H]1c2ccc(O)cc2Oc2c1c(=O)oc1ccccc21`, the Potency is reported as inconclusive: 29.1 µM [cytotoxic, single point].
For `COc1ccc(-n2nnnc2C(c2cccc(OC)c2OC)N2CCC(n3c(=O)[nH]c4ccccc43)CC2)cc1` (stereo unspecified), the Potency was inconclusive: 29.1 µM [cytotoxic, single point].
With `O=C1NCN(c2ccccc2)C12CCN(C(c1ccccc1)c1nnnn1-c1ccc3c(c1)OCCO3)CC2` (stereo unspecified) the Potency was inconclusive: 20.6 µM [cytotoxic, single point].
For `CC(CC(C)(C)N1CC1)=NNC(=O)Nc1cccc2ccccc12`, the Potency was inconclusive: 29.1 µM [cytotoxic, single point].
In the case of `O=C(O)CNC1c2ccccc2CSc2ccccc21` (stereo unspecified), the activity change, negative = cytotoxic is reported as inconclusive: -2.37%.
For `COc1cc2c(cc1OC)[C@@H]1C(=O)c3ccc4c(c3O[C@@H]1CO2)C[C@H](C(C)C)O4`, the Potency was inconclusive: 2.59 µM [cytotoxic, partial curve, poor fit].
In the case of `CCOC(=O)C1CCN(/C=C2/C(=O)NC(=O)N(c3cccc(C)c3C)C2=O)CC1`, the activity change, negative = cytotoxic is reported as inconclusive: 4.88%.
In the case of `CCn1c(CN2CCN(C)CC2)nc2ccccc21`, the “activity change, negative = cytotoxic” value is reported as inactive: 10.5%.
With `CCCCCn1c(=O)c(C(=O)NCc2ccncc2)c(O)c2ccccc21` the Potency was active: 5.8 µM.
With `CNC(=O)OCCc1n(C)cc[n+]1C` the Potency was inconclusive: 20.6 µM [rising, partial curve, poor fit].
For `C[C@H]1O[C@@H](O[C@H]2[C@@H](O)C[C@H](O[C@H]3[C@@H](O)C[C@H](O[C@H]4CC[C@@]5(C)[C@H](CC[C@@H]6[C@@H]5CC[C@]5(C)[C@@H](C7=CC(=O)OC7)CC[C@]65O)C4)O[C@@H]3C)O[C@@H]2C)C[C@H](O)[C@@H]1O`, the Potency was inconclusive: 29.1 µM [cytotoxic, single point].
With `Cc1ccc(OP(=O)(NC(C)c2ccccc2)Oc2ccc(C)cc2)cc1` (stereo unspecified) the Potency was inconclusive: 29.1 µM [cytotoxic, single point].
With `O=C(OCc1ccccc1)N1CCC2CC1c1cc(N3Cc4ccccc4-n4nncc4C3)ccc12` (stereo unspecified) the Potency was inconclusive: 10.3 µM [cytotoxic, partial curve].
With `Clc1ccc(-c2nc3ccc(Cl)cn3c2CN2CCCCC2)cc1` the Potency was inconclusive: 29.1 µM [cytotoxic, single point].
With `CCCCN1CCC(O)(c2ccccc2)C(C(=O)c2ccccc2)C1` (stereo unspecified) the “activity change, negative = cytotoxic” value was inactive: -12%.
% is scaled to controls: 0 for no effect and ±100 for the full control effect; potency is read from the fitted curve at half-maximal effect.
